# Source: patent US10611720B2, “Composition for preventing or treating hair loss including benzene diamine derivative” (UNIST(ULSAN NATIONAL INSTITUTE OF SCIENCE AND TECHNOLOGY), priority 2017, dated 2020)
# Some results were stated once for a whole list of compounds, not compound by compound. At least one structure is not confirmed: it was looked up by name or label, or the drawing left a doubt.
# System: COL17A1
# Experiment: COL17A1 expression in hDPC cells under oligomer Aβ (confocal fluorescence)
# Format: cell-based, human
# Conditions: Example 4; hDPCs, 2 nM oligomer Aβ + 25 μg/ml compound, 3 days; compared with cells treated with oligomer Aβ
# Procedure: As in Example 2, examination was performed by using oligomer Aβ as a cytotoxic material for hDPC.
# (§1) At 3 days after treatment of the derivatives, the cells were fixed with 4% paraformaldehyde solution, and washed with PBS, and then fluorescence of ROI (relative fluorescence intensity) was measured at 488 nm by a confocal microscope (CONFOCAL, LSM710, Carl Zeiss, Germany) to examine SOX-9 and Cola17a1 expressions. As in Example 2, examination was performed by using oligomer Aβ as a cytotoxic material for hDPC.
# as §1, with “fluorescence” for “fluorescence of ROI (relative fluorescence intensity)”, “488 nm/565” for “488”, “hDPC. […] COL17A1 expression was inhibited in the cells (control group C) treated with the cytotoxic oligomer Aβ, as compared with the normal group.” for “hDPC.”
smiles,measurement,value
"CN(C)c1ccc(N)cc1 [Compound 3, N^1,N^1-dimethyl-1,4-phenylenediamine]","COL17A1 expression (confocal imaging, in words)",remarkably increased the expression
